{"source": "patent US20120213697A1", "about": "“VERSATILE NANOPARTICULATE BIOMATERIAL FOR CONTROLLED DELIVERY AND/OR CONTAINMENT OF THERAPEUTIC AND DIAGNOSTIC MATERIAL” (Albert Einstein College of Medicine of Yeshiva University, priority 2009, published 2012)", "system": "Retired breeder male Sprague-Dawley rats (erectile dysfunction model)", "test": "ICP/BP response to cavernous nerve stimulation in retired breeder rats", "assay_type": "in vivo, rat", "details": "after 60 min, 4 mA level of stimulation", "note": "At least one structure is not confirmed: it was looked up by name or label, or the drawing left a doubt.", "data": [{"smiles": "CN1CC(=O)N2[C@H](c3ccc4c(c3)OCO4)c3[nH]c4ccccc4c3C[C@@H]2C1=O", "note": "[tadalafil]", "values": [{"measurement": "erectile response versus controls", "result": "significantly improved erectile response"}]}]}
